In the supplement of paper PMC10849652:
Some of the results follow.

Chains of the proteins cited; added tags and fusions are not shown. Lines headed by an entry give the natural chain unless they say otherwise; changes in a name come on top.
UniProt O75410: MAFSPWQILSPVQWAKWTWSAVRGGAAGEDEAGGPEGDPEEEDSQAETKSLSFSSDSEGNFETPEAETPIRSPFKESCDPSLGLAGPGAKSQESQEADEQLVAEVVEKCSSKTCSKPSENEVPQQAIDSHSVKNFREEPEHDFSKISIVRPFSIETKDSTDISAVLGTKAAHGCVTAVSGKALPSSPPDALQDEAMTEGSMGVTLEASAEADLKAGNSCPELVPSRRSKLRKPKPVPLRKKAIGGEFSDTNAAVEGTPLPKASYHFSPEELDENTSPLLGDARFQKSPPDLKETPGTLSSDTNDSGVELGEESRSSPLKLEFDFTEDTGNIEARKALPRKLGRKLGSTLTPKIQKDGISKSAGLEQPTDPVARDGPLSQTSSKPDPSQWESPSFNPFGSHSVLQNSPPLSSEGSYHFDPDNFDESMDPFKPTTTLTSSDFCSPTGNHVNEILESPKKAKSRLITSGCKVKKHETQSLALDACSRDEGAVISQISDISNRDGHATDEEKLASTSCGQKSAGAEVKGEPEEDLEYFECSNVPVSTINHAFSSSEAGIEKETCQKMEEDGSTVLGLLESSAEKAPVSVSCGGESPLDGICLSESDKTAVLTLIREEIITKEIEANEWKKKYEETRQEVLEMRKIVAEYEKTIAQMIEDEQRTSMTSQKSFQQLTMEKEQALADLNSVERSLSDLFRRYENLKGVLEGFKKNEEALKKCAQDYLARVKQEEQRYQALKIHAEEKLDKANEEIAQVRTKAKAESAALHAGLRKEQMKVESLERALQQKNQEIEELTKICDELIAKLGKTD
UniProt Q6ICL3: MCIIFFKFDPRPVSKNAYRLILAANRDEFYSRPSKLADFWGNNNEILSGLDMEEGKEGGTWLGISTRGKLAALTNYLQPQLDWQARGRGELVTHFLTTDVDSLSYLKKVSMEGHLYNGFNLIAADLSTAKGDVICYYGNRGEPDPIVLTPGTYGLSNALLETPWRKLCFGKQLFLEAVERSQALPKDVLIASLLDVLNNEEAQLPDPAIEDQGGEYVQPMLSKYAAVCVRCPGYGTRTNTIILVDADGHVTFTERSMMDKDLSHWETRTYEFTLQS
UniProt O14662: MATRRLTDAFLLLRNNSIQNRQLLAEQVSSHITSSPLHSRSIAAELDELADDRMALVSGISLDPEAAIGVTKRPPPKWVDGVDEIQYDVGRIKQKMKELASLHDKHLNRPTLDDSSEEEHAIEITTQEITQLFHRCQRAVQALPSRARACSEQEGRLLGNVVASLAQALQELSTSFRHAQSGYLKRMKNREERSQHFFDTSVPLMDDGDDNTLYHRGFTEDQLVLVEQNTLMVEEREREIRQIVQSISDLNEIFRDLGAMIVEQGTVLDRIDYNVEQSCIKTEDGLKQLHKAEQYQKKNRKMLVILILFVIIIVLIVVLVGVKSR
UniProt Q12846: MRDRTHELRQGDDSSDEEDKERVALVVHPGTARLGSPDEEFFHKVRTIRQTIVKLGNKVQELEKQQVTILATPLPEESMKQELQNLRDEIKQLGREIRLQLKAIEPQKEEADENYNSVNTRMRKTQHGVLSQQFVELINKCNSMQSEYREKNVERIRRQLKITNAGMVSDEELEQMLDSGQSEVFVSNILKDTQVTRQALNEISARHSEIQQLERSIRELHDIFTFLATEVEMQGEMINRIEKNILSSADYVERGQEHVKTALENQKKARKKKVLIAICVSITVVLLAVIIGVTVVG
UniProt Q15633: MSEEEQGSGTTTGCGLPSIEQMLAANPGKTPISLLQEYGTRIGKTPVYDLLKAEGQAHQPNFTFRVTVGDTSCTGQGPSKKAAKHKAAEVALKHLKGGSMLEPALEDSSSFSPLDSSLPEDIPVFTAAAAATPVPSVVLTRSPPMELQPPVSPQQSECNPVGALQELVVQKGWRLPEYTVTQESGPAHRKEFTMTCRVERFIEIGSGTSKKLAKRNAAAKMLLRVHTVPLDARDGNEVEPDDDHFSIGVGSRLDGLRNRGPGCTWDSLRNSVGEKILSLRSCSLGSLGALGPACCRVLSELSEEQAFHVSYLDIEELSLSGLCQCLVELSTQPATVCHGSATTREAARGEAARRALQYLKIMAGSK
UniProt Q9NRL3: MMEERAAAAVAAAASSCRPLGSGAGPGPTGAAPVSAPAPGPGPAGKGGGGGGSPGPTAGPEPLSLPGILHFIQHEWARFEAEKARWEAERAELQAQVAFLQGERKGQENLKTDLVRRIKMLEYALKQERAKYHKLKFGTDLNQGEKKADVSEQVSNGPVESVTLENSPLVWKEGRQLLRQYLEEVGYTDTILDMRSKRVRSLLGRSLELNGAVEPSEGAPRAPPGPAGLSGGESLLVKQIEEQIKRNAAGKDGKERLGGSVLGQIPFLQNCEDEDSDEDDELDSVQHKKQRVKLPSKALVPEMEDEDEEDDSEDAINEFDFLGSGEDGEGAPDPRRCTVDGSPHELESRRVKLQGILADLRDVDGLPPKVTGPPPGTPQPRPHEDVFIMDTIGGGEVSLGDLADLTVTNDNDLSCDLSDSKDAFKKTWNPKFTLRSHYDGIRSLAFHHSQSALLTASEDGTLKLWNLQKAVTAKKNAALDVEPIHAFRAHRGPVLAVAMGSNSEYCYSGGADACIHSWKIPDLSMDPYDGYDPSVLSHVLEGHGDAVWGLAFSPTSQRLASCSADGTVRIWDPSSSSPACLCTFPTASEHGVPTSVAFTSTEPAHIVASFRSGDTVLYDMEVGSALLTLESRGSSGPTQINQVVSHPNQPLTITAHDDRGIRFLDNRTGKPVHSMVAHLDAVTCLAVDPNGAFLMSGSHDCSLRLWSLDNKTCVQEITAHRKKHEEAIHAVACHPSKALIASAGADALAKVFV
UniProt Q7RTN6: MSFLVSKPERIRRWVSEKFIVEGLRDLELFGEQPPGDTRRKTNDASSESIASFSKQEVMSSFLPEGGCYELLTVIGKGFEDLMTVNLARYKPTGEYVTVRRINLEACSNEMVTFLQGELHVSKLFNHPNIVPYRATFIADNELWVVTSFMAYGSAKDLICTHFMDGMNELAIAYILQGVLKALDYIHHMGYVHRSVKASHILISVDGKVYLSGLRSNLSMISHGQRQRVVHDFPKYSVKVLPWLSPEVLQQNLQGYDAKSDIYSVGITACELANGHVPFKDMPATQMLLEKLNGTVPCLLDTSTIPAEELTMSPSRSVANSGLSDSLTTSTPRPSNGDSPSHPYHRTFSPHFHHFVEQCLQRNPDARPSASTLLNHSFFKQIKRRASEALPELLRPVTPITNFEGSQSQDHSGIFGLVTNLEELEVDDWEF
UniProt Q8N300: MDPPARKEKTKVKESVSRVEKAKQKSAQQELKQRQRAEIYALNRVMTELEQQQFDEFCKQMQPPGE
UniProt P37837: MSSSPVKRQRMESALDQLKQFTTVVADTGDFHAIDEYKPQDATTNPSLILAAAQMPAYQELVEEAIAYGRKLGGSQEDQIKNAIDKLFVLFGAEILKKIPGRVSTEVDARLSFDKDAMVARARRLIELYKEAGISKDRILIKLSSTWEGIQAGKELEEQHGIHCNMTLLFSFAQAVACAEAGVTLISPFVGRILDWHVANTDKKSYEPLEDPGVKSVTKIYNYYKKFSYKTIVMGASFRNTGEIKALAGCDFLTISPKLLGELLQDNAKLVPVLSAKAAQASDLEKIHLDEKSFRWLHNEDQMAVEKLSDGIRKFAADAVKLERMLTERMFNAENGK
UniProt Q1ZZU3: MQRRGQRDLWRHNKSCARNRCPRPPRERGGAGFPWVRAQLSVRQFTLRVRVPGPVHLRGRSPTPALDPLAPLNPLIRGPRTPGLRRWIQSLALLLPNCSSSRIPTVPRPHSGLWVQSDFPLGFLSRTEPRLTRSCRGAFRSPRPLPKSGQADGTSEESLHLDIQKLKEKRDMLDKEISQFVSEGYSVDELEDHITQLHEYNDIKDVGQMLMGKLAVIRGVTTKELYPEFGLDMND
UniProt P17542, whole entry, looked up: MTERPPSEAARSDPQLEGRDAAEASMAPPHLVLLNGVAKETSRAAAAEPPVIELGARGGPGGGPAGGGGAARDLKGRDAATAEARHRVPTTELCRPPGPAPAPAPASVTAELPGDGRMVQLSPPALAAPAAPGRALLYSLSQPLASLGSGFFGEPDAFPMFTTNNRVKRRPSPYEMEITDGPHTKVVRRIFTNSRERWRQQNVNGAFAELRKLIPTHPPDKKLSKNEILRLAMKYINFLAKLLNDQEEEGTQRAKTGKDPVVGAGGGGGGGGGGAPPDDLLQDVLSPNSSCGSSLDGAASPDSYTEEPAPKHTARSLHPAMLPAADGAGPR
UniProt Q9UNE7: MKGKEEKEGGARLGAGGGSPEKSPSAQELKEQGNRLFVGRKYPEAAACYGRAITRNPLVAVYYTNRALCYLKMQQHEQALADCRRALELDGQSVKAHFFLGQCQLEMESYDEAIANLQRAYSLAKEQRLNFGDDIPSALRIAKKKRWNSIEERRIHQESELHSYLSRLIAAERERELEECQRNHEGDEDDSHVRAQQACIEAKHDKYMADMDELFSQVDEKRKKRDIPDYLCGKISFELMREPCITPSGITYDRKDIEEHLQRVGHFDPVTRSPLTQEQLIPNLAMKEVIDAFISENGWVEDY
UniProt Q7Z422: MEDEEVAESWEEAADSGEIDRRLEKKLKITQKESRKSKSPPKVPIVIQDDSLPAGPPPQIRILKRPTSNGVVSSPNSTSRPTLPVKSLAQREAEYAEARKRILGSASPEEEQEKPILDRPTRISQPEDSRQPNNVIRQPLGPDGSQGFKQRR
UniProt Q13277: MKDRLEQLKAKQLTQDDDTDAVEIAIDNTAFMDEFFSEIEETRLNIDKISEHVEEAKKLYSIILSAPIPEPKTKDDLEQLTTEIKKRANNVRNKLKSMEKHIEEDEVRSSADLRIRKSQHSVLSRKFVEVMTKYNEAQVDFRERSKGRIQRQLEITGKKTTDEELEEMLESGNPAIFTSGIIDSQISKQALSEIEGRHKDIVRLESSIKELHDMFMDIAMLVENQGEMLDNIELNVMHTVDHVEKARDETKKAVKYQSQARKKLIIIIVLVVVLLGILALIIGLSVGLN

Tests used:
Assay in all cases: log2 fold change, soluble protein after heating vs DMSO (PISA); higher = thermal stabilisation; K562 cells, 10 uM, 30 min; active = over 0.2 and 3.5 SD of the protein, either way, in both replicates (recomputed)
saracatinib = compound: CN1CCN(CCOc2cc(OC3CCOCC3)c3c(Nc4c(Cl)ccc5c4OCO5)ncnc3c2)CC1 [saracatinib]
In short: (§1)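 Soluble protein was defined as the supernatant after 21,000xg for 90 min. It came from K562 cells at 2×10^6 cells/mL given 10 μM compound for 30 min, heated in aliquots for 3 min across 48°C-58°C, pooled, and extracted in PBS with 0.5% NP-40 at 4°C, and was quantified by TMTpro 16plex LC-MS/MS with equalised channel sums. Thermal stability against control samples, from duplicates, is reported as log2 fold change.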

sotrastaurin = compound: CN1CCN(c2nc(C3=C(c4c[nH]c5ccccc45)C(=O)NC3=O)c3ccccc3n2)CC1 [sotrastaurin]
In short: as §1

alvocidib = compound: CN1CC[C@H](c2c(O)cc(O)c3c(=O)cc(-c4ccccc4Cl)oc23)[C@H](O)C1 [alvocidib]
In short: as §1

Tubastatin A = compound: CN1CCc2c(c3ccccc3n2Cc2ccc(C(=O)NO)cc2)C1 [Tubastatin A]
In short: as §1

[1] = compound: CNC(=O)C1=CC=CC=C1NC2=NC(=NC=C2Cl)NC3=C(C=C(C=C3)N4CCOCC4)OC
In short: as §1

defactinib = compound: CNC(=O)c1ccc(Nc2ncc(C(F)(F)F)c(NCc3nccnc3N(C)S(C)(=O)=O)n2)cc1 [defactinib]
In short: as §1

rucaparib = compound: CNCc1ccc(-c2[nH]c3cc(F)cc4c3c2CCNC4=O)cc1 [rucaparib]
In short: as §1

[2] = compound: CNc1nc(-c2ccc3c(N)n[nH]c3c2)cc(N2C[C@@H](C(=O)NC3CCCCC3)CC[C@H]2C)n1
In short: as §1

encorafenib = compound: COC(=O)N[C@@H](C)CNc1nccc(-c2cn(C(C)C)nc2-c2cc(Cl)cc(NS(C)(=O)=O)c2F)n1 [encorafenib]
In short: as §1

[3] = compound: COC(=O)[C@H](CCSC)NC(=O)C1=C(C=C(C=C1)NC[C@H](CS)N)C2=CC=CC=C2
In short: as §1

[4] = compound: COC1=CC=C(C=C1)CN2C=CC3=C2C=C(C=C3)C(=O)NO
In short: as §1

filanesib = compound: CON(C)C(=O)N1N=C(c2cc(F)ccc2F)S[C@@]1(CCCN)c1ccccc1 [filanesib]
In short: as §1

zotarolimus = compound: CO[C@H]1C[C@@H]2CC[C@@H](C)[C@@](O)(O2)C(=O)C(=O)N2CCCC[C@H]2C(=O)O[C@H]([C@H](C)C[C@@H]2CC[C@H](n3cnnn3)[C@H](OC)C2)CC(=O)[C@H](C)/C=C(\C)[C@@H](O)[C@@H](OC)C(=O)[C@H](C)C[C@H](C)/C=C/C=C/C=C/1C [zotarolimus]
In short: as §1

idasanutlin = compound: COc1cc(C(=O)O)ccc1NC(=O)[C@@H]1N[C@@H](CC(C)(C)C)[C@](C#N)(c2ccc(Cl)cc2F)[C@H]1c1cccc(Cl)c1F [idasanutlin]
In short: as §1

alisertib = compound: COc1cc(Nc2ncc3c(n2)-c2ccc(Cl)cc2C(c2c(F)cccc2OC)=NC3)ccc1C(=O)O [alisertib]
In short: as §1

[5] = compound: COc1cc2nc(-c3cc(F)ccc3O)nc(N[C@@H]3CNC[C@H]3C(C)(C)O)c2cc1OC
In short: as §1

gefitinib = compound: COc1cc2ncnc(Nc3ccc(F)c(Cl)c3)c2cc1OCCCN1CCOCC1 [gefitinib]
In short: as §1

[6] = compound: COc1cccc2cc(-c3nc([C@H]4CC[C@H](C(=O)O)CC4)n4ncnc(N)c34)[nH]c12
In short: as §1

lapatinib = compound: CS(=O)(=O)CCNCc1ccc(-c2ccc3ncnc(Nc4ccc(OCc5cccc(F)c5)c(Cl)c4)c3c2)o1 [lapatinib]
In short: as §1

pictilisib = compound: CS(=O)(=O)N1CCN(Cc2cc3nc(-c4cccc5[nH]ncc45)nc(N4CCOCC4)c3s2)CC1 [pictilisib]
In short: as §1

Measured: log2 fold change

TACO1 (UniProt Q9BSH4)
inactive: saracatinib 0.048 | sotrastaurin -0.159 | alvocidib -0.218 | Tubastatin A 0.266 | [1] -0.027 | defactinib -0.116 | rucaparib -0.038 | [2] 0.012 | encorafenib 0.04 | [3] 0.019 | [4] 0.095 | filanesib -0.137 | zotarolimus 0.016 | idasanutlin 0.066 | alisertib -0.057 | [5] 0.135 | gefitinib 0.012 | [6] -0.169 | lapatinib -0.112 | pictilisib 0.063

SUB1 (UniProt P53999)
inactive: saracatinib 0.013 | sotrastaurin 0.027 | alvocidib 0.006 | Tubastatin A 0.003 | [1] -0.019 | defactinib 0.001 | rucaparib -0.034 | [2] -0.02 | encorafenib -0.054 | [3] 0.035 | [4] -0.064 | filanesib 0.004 | zotarolimus -0.003 | idasanutlin 0.015 | alisertib 0.023 | [5] 0.022 | gefitinib 0.029 | [6] 0.011 | lapatinib -0.036 | pictilisib 0.032

TACC1 isoform 2 (UniProt O75410)
inactive: saracatinib 0.046 | sotrastaurin 0.028 | alvocidib -0.016 | Tubastatin A -0.005 | [1] 0.013 | defactinib -0.03 | rucaparib 0.006 | [2] -0.034 | encorafenib -0.01 | [3] 0.019 | [4] -0.013 | filanesib -0.039 | zotarolimus -0.025 | idasanutlin -0.003 | alisertib -0.036 | [5] -0.031 | gefitinib -0.01 | [6] 0.009 | lapatinib -0.019 | pictilisib 0.03

TANGO2 isoform 4 (UniProt Q6ICL3)
inactive: saracatinib -0.021 | sotrastaurin 0.028 | alvocidib -0.087 | Tubastatin A 0.024 | [1] -0.017 | defactinib -0.09 | rucaparib -0.045 | [2] -0.067 | encorafenib -0.046 | [3] 0.004 | [4] 0.022 | filanesib 0.014 | zotarolimus 0.027 | idasanutlin 0.001 | alisertib -0.097 | [5] 0.034 | gefitinib -0.026 | [6] 0.035 | lapatinib 0.002 | pictilisib 0.057

STX16 isoform 2 (UniProt O14662)
inactive: saracatinib -0.003 | sotrastaurin -0.101 | alvocidib -0.069 | Tubastatin A 0.036 | [1] 0.071 | defactinib -0.081 | rucaparib 0.002 | [2] 0.062 | encorafenib 0.042 | [3] -0.144 | [4] 0.121 | filanesib 0.016 | zotarolimus 0.007 | idasanutlin -0.011 | alisertib -0.008 | [5] 0.071 | gefitinib -0.001 | [6] 0.034 | lapatinib -0.059 | pictilisib 0.011

STX4 (UniProt Q12846)
inactive: saracatinib 0.007 | sotrastaurin 0.016 | alvocidib -0.032 | Tubastatin A 0.026 | [1] -0.023 | defactinib -0.114 | rucaparib -0.048 | [2] 0 | encorafenib -0.016 | [3] -0.029 | [4] -0.046 | filanesib 0.037 | zotarolimus -0.008 | idasanutlin 0.029 | alisertib -0.046 | [5] 0.154 | gefitinib 0.043 | [6] 0.006 | lapatinib 0.05 | pictilisib 0.041

TARBP2 (UniProt Q15633)
inactive: saracatinib -0.151 | sotrastaurin -0.197 | alvocidib 0.084 | Tubastatin A 0.142 | [1] 0.005 | defactinib 0.087 | rucaparib 0.206 | [2] -0.015 | encorafenib 0.055 | [3] 0.017 | [4] -0.159 | filanesib 0.065 | zotarolimus -0.125 | idasanutlin 0.152 | alisertib 0.005 | [5] 0.034 | gefitinib 0.061 | [6] -0.162 | lapatinib -0.078 | pictilisib 0.008

STRN4 isoform 3 (UniProt Q9NRL3)
inactive: saracatinib 0.096 | sotrastaurin -0.001 | alvocidib -0.085 | Tubastatin A -0.012 | [1] 0.064 | defactinib -0.058 | rucaparib -0.058 | [2] -0.044 | encorafenib -0.003 | [3] -0.042 | [4] -0.074 | filanesib -0.064 | zotarolimus -0.032 | idasanutlin 0.021 | alisertib -0.082 | [5] 0.064 | gefitinib 0.035 | [6] -0.068 | lapatinib 0.102 | pictilisib 0.113

STRADA (UniProt Q7RTN6)
inactive: saracatinib 0.055 | sotrastaurin 0.039 | alvocidib 0.015 | Tubastatin A 0.03 | [1] -0.019 | defactinib -0.021 | rucaparib 0.031 | [2] -0.029 | encorafenib -0.007 | [3] 0.036 | [4] 0.003 | filanesib 0.081 | zotarolimus -0.024 | idasanutlin 0.019 | alisertib -0.154 | [5] 0.043 | gefitinib -0.036 | [6] 0.071 | lapatinib 0.026 | pictilisib -0.059

SVBP (UniProt Q8N300)
inactive: saracatinib 0.077 | sotrastaurin 0.083 | alvocidib -0.096 | Tubastatin A 0.046 | defactinib -0.02 | rucaparib 0.08 | [2] 0.004 | encorafenib -0.012 | [3] 0.031 | filanesib 0.009 | zotarolimus 0.003 | idasanutlin 0.056 | alisertib 0.13 | [5] 0.06 | [6] 0.075 | lapatinib 0.043 | pictilisib 0.019

TALDO1 (UniProt P37837)
inactive: saracatinib -0.003 | sotrastaurin 0.009 | alvocidib -0.102 | Tubastatin A -0.016 | [1] -0.006 | defactinib -0.016 | rucaparib -0.065 | [2] 0.01 | encorafenib 0.02 | [3] 0.007 | [4] -0.058 | filanesib -0.097 | zotarolimus 0.063 | idasanutlin -0.042 | alisertib -0.035 | [5] -0.028 | gefitinib -0.015 | [6] -0.021 | lapatinib -0.007 | pictilisib -0.057

SWI5 (UniProt Q1ZZU3)
inactive: saracatinib -0.072 | sotrastaurin 0.032 | alvocidib 0.017 | [1] -0.076 | defactinib -0.076 | [2] -0.055 | [3] 0.097 | [4] -0.033 | filanesib 0.032 | zotarolimus 0.033 | idasanutlin -0.318 | [5] 0.057 | gefitinib -0.029 | lapatinib -0.019 | pictilisib -0.077

TAL1 (UniProt P17542)
inactive: saracatinib 0.039 | sotrastaurin 0.024 | alvocidib -0.014 | Tubastatin A -0.008 | [1] -0.042 | defactinib -0.026 | rucaparib -0.047 | [2] -0.051 | encorafenib 0.026 | [3] -0.002 | [4] -0.02 | filanesib 0.033 | zotarolimus -0.078 | idasanutlin 0.034 | alisertib -0.042 | [5] 0.049 | gefitinib -0.004 | [6] 0.089 | lapatinib -0.001 | pictilisib -0.011

STUB1 (UniProt Q9UNE7)
inactive: saracatinib -0.184 | sotrastaurin -0.23 | alvocidib 0.131 | Tubastatin A 0.096 | [1] -0.1 | defactinib 0.141 | rucaparib 0.391 | [2] 0.079 | encorafenib 0.271 | [3] -0.039 | [4] 0.038 | filanesib 0.216 | zotarolimus 0.071 | idasanutlin 0.086 | alisertib -0.074 | [5] 0.022 | gefitinib -0.125 | [6] -0.089 | lapatinib 0.019 | pictilisib 0.036

SZRD1 (UniProt Q7Z422)
inactive: saracatinib 0.003 | sotrastaurin 0.04 | alvocidib -0.029 | Tubastatin A 0.034 | [1] -0.058 | defactinib -0.02 | rucaparib -0.012 | [2] -0.009 | encorafenib 0.017 | [3] 0.004 | [4] 0.179 | filanesib 0.014 | zotarolimus -0.028 | idasanutlin 0.019 | alisertib 0.001 | [5] -0.044 | gefitinib -0.001 | [6] 0.104 | lapatinib 0.034 | pictilisib 0.002

Two consecutive records from above, quoted:
SWI5 (UniProt Q1ZZU3)
inactive: saracatinib -0.072 | sotrastaurin 0.032 | alvocidib 0.017 | [1] -0.076 | defactinib -0.076 | [2] -0.055 | [3] 0.097 | [4] -0.033 | filanesib 0.032 | zotarolimus 0.033 | idasanutlin -0.318 | [5] 0.057 | gefitinib -0.029 | lapatinib -0.019 | pictilisib -0.077

TAL1 (UniProt P17542)
inactive: saracatinib 0.039 | sotrastaurin 0.024 | alvocidib -0.014 | Tubastatin A -0.008 | [1] -0.042 | defactinib -0.026 | rucaparib -0.047 | [2] -0.051 | encorafenib 0.026 | [3] -0.002 | [4] -0.02 | filanesib 0.033 | zotarolimus -0.078 | idasanutlin 0.034 | alisertib -0.042 | [5] 0.049 | gefitinib -0.004 | [6] 0.089 | lapatinib -0.001 | pictilisib -0.011

More entries follow:

STX3 (UniProt Q13277)
inactive: saracatinib 0.081 | sotrastaurin -0.001 | alvocidib -0.046 | Tubastatin A -0.033 | [1] -0.015 | defactinib -0.051 | rucaparib -0.004 | [2] -0.005 | encorafenib 0.06 | [3] 0 | [4] -0.067 | filanesib -0.068 | zotarolimus -0.062 | idasanutlin -0.07 | alisertib -0.008 | [5] -0.035 | gefitinib 0.051 | [6] 0.04 | lapatinib 0.066 | pictilisib 0.099
